Tested on: DOCA-salt hypertensive rats
Assay: Effects of cyclosporine A and tacrolimus in DOCA-salt hypertensive rats (albuminuria)
Format: in vivo, Sprague Dawley rats
Details: DOCA-salt treatment with cyclosporine A or tacrolimus
Procedure: The DOCA-salt hypertensive rat model is a well-established model of mineralocorticoid hypertension with renal dysfunction leading to an FSGS phenotype, characterized by increased levels of urinary protein and albumin excretion. [Schenk et al., “The pathogenesis of DOCA-salt hypertension,” J. Pharmacol. Toxicol.
Six to seven weeks old Sprague Dawley rats were unilaterally nephrectomized; after one-week recovery, rats were implanted with a DOCA pellet (45 mg) and provided tap water containing 0.9% NaCl and 0.2% KCl (Day 1) for a 3 weeks treatment. […] Sham animals, implanted with a silicone-water pellet, were given tap water and received administration of the vehicle. Proteinuria and albuminuria were recorded every week, and body weight was recorded daily.

With C=CC[C@@H]1/C=C(\C)C[C@H](C)C[C@H](OC)[C@H]2O[C@@](O)(C(=O)C(=O)N3CCCC[C@H]3C(=O)O[C@H](/C(C)=C/[C@@H]3CC[C@@H](O)[C@H](OC)C3)[C@H](C)[C@@H](O)CC1=O)[C@H](C)C[C@@H]2OC [tacrolimus, Tacrolimus] the “water intake per day” value was “elevated”.
